Assay results as given in patent US11225470B2, “Tetrazolinone compounds and its use as pest control agents” (SUMITOMO CHEMICAL COMPANY, LIMITED, priority 2016, dated 2022).
Some entries share one result that the patent states for a list of compounds.

How the values were obtained:
[1] = test system: tomato leaf blight fungus (Cladosporium fulvum; QoI resistant strain, cytochrome b phenylalanine 129 mutated to leucine); experiment: titer plate growth test in potato dextrose broth, absorbance at 550 nm; settings: 1 μL of 150 ppm dimethylsulfoxide dilution plus 150 μL inoculated broth; 18° C. for 5 days
[2] = test system: tomato early blight fungi (Alternaria solani; QoI resistant strain, cytochrome b phenylalanine 129 mutated to leucine); type: in vivo; settings: 200 ppm foliar spray, inoculation after 1 day; tomato cv PATIO

SMILES | growth compared to the growth in an untreated group [1] | lesion area compared to the lesion area in an untreated tomato [2]
CCC(=NN=C1CCCc2ccccc21)OCc1c(C)cccc1-n1nnn(C)c1=O [E-25] | ≤ 50% | ≤ 30%
CCC(=NN=C1CCc2ccc(F)cc21)OCc1c(C)cccc1-n1nnn(C)c1=O [E-4] | ≤ 50% | 
CCC(=NN=C(C)c1cnn(C)c1)OCc1c(C)cccc1-n1nnn(C)c1=O [1-9] |  | ≤ 30%
CCC(=NN=C(C)c1cnc2ccccc2c1)OCc1c(C)cccc1-n1nnn(C)c1=O [D-5] | ≤ 50% | ≤ 30%
CCC(=NN=C1CCOc2ccccc21)OCc1c(C)cccc1-n1nnn(C)c1=O [E-11] | ≤ 50% | 
CCC(=NN=C1CCc2cc(OC)ccc21)OCc1c(C)cccc1-n1nnn(C)c1=O [E-7] | ≤ 50% | ≤ 30%
CCC(=NN=C1CCOc2ccc(F)cc21)OCc1c(C)cccc1-n1nnn(C)c1=O [E-17] | ≤ 50% | ≤ 30%
CCC(=NN=C1CCOc2ccc(Cl)cc21)OCc1c(C)cccc1-n1nnn(C)c1=O [E-22] | ≤ 50% | ≤ 30%
CCC(=NN=C1CCOc2c(OC)cccc21)OCc1c(C)cccc1-n1nnn(C)c1=O [E-20] | ≤ 50% | 
CSC(=NCCc1ccccc1)SCc1c(C)cccc1-n1nnn(C)c1=O [3-20] |  | ≤ 30%
CCC(=NN=C1CC[S+]([O-])c2ccccc21)OCc1c(C)cccc1-n1nnn(C)c1=O (centres unmarked) [E-29] |  | ≤ 30%
CCC(=NN=C(C)C(C)=NOC)OCc1c(C)cccc1-n1nnn(C)c1=O [1-10] |  | ≤ 30%
CC#CCON=C(C)C(C)=NN=C(CC)OCc1c(C)cccc1-n1nnn(C)c1=O [C-6] | ≤ 50% | ≤ 30%
CCC(=NN=C1COc2ccccc21)OCc1c(C)cccc1-n1nnn(C)c1=O [E-10] | ≤ 50% | 
CCC(=NN=C1CCOc2c(F)ccc(F)c21)OCc1c(C)cccc1-n1nnn(C)c1=O [E-27] | ≤ 50% | 
CCC(=NN=C(C)c1cn(C)c2ncccc12)OCc1c(C)cccc1-n1nnn(C)c1=O [D-20] | ≤ 50% | ≤ 30%
CCC(=NN=C1CCOc2ccccc21)OCc1c(C2CC2)cccc1-n1nnn(C)c1=O [E-14] | ≤ 50% | 
CCC(=NN=C(C)C(C)=NOCCOC)OCc1c(C)cccc1-n1nnn(C)c1=O [C-14] | ≤ 50% | 
CCC(=NN=C(C)c1nc2ccccc2n1C)OCc1c(C)cccc1-n1nnn(C)c1=O [D-14] | ≤ 50% | ≤ 30%
CCC(=NN=C(C)C(C)=NOCSC)OCc1c(C)cccc1-n1nnn(C)c1=O [C-15] | ≤ 50% | 

SMILES | growth compared to the growth in an untreated group [1] | lesion area compared to the lesion area in an untreated tomato [2]
CCC(=NN=C(C)c1ccn(C)n1)OCc1c(C)cccc1-n1nnn(C)c1=O [D-19] | ≤ 50% | 
CSC(=NCCc1ccccc1Cl)SCc1c(C)cccc1-n1nnn(C)c1=O [3-31] |  | ≤ 30%
CCC(=NN=C(C)c1cccc2c1CCC2)OCc1c(C)cccc1-n1nnn(C)c1=O [D-10] | ≤ 50% | ≤ 30%
CCC(=NN=C1CCc2c(OC)cccc21)OCc1c(C)cccc1-n1nnn(C)c1=O [E-6] | ≤ 50% | ≤ 30%
C=CCON=C(C)C(C)=NN=C(CC)OCc1c(C)cccc1-n1nnn(C)c1=O [C-2] | ≤ 50% | ≤ 30%
CCC(=NN=C(C)C(C)=NOCc1ccccc1OC)OCc1c(C)cccc1-n1nnn(C)c1=O [C-9] | ≤ 50% | ≤ 30%
CCC(=NN=C1CCS(=O)(=O)c2ccccc21)OCc1c(C)cccc1-n1nnn(C)c1=O [E-19] | ≤ 50% | ≤ 30%
CCC(=NN=C(C)c1nc2ccccc2o1)OCc1c(C)cccc1-n1nnn(C)c1=O [D-15] | ≤ 50% | ≤ 30%
CCC(=NN=C(C)c1ccc2c(c1)OCO2)OCc1c(C)cccc1-n1nnn(C)c1=O [D-8] | ≤ 50% | 
CCC(=NN=C1CCc2cccc(OC)c21)OCc1c(C)cccc1-n1nnn(C)c1=O [E-9] | ≤ 50% | ≤ 30%
CCC(=NN=C(C)C(C)=NOCc1cccc(C)c1)OCc1c(C)cccc1-n1nnn(C)c1=O [C-11] | ≤ 50% | ≤ 30%
CCC(=NN=C(C)c1ccnn1CC)OCc1c(C)cccc1-n1nnn(C)c1=O [D-24] |  | ≤ 30%
CCC(=NN=C1CCOc2c(F)cc(F)cc21)OCc1c(C)cccc1-n1nnn(C)c1=O [E-23] | ≤ 50% | 
CCC(=NN=C1CCOc2cccc(F)c21)OCc1c(C)cccc1-n1nnn(C)c1=O [E-21] | ≤ 50% | 
CCC(=NN=C1CCSc2ccccc21)OCc1c(C)cccc1-n1nnn(C)c1=O [E-28] | ≤ 50% | ≤ 30%
CCC(=NN=C(C)C(C)=NOCc1ccc(C)cc1)OCc1c(C)cccc1-n1nnn(C)c1=O [C-8] | ≤ 50% | ≤ 30%
CCC(=NN=C1CCc2cc(F)ccc21)OCc1c(C)cccc1-n1nnn(C)c1=O [E-3] | ≤ 50% | ≤ 30%
CCC(=NN=C(C)c1ccc2scnc2c1)OCc1c(C)cccc1-n1nnn(C)c1=O [D-3] | ≤ 50% | ≤ 30%
CCC(=NN=C(C)c1nn(C)c2ccccc12)OCc1c(C)cccc1-n1nnn(C)c1=O [D-16] | ≤ 50% | ≤ 30%
CCC(=NN=C(C)c1cn(C)c2ccccc12)OCc1c(C)cccc1-n1nnn(C)c1=O [D-17] | ≤ 50% | ≤ 30%

SMILES | growth compared to the growth in an untreated group [1] | lesion area compared to the lesion area in an untreated tomato [2]
CCC(=NN=C(C)C(C)=NOC(C)C)OCc1c(C)cccc1-n1nnn(C)c1=O [A-3] | ≤ 50% | ≤ 30%
CCC(=NN=C(C)c1cc2ccccc2s1)OCc1c(C)cccc1-n1nnn(C)c1=O [1-3] | ≤ 50% | ≤ 30%
CCC(=NN=C(C)c1cnc2ccccc2n1)OCc1c(C)cccc1-n1nnn(C)c1=O [D-4] | ≤ 50% | ≤ 30%
CCC(=NN=C1CCc2cccc(F)c21)OCc1c(C)cccc1-n1nnn(C)c1=O [E-5] | ≤ 50% | 
CCC(=NN=C1CCOc2c(F)cccc21)OCc1c(C)cccc1-n1nnn(C)c1=O [E-15] | ≤ 50% | ≤ 30%
CCC(=NN=C1CCOc2ccccc21)OCc1c(OC)cccc1-n1nnn(C)c1=O [E-12] | ≤ 50% | 
CCC(=NN=C(C)c1cccc2c1CCCC2)OCc1c(C)cccc1-n1nnn(C)c1=O [D-12] | ≤ 50% | ≤ 30%
CCC(=NN=C1CCOc2ccccc21)OCc1c(Cl)cccc1-n1nnn(C)c1=O [E-13] | ≤ 50% | ≤ 30%
CCC(=NN=C1CCOc2cc(F)cc(F)c21)OCc1c(C)cccc1-n1nnn(C)c1=O [E-24] | ≤ 50% | ≤ 30%
C=C=Cn1ccc(C(C)=NN=C(CC)OCc2c(C)cccc2-n2nnn(C)c2=O)n1 [D-29] | ≤ 50% | ≤ 30%
CCC(=NN=C(C)c1cc2ccccc2n1C)OCc1c(C)cccc1-n1nnn(C)c1=O [D-6] | ≤ 50% | 
CCC(=NN=C1CCc2ccc(OC)cc21)OCc1c(C)cccc1-n1nnn(C)c1=O [E-8] | ≤ 50% | ≤ 30%
CCC(=NN=C(C)C(C)=NOCc1cccc(OC)c1)OCc1c(C)cccc1-n1nnn(C)c1=O [C-10] | ≤ 50% | ≤ 30%
CCC(=NN=C1CCOc2cc(OC)ccc21)OCc1c(C)cccc1-n1nnn(C)c1=O [E-30] | ≤ 50% | ≤ 30%
CCC(=NN=C(C)c1ccn(CC)n1)OCc1c(C)cccc1-n1nnn(C)c1=O [D-23] | ≤ 50% | 
CCC(=NN=C(C)C(C)=NOCC1CC1)OCc1c(C)cccc1-n1nnn(C)c1=O [C-4] | ≤ 50% | 
CCC(=NN=C(C)C(C)=NOCc1ccc(OC)cc1)OCc1c(C)cccc1-n1nnn(C)c1=O [C-12] |  | ≤ 30%
CCSC(=NCCc1ccccc1)SCc1c(C)cccc1-n1nnn(C)c1=O [3-1] |  | ≤ 30%
CCC(=NN=C(C)c1cccc2c1OC(F)(F)O2)OCc1c(C)cccc1-n1nnn(C)c1=O [D-9] | ≤ 50% | 
